Literature values as cited in patent US10889566B2, “Derivatives and composition of quinoline and naphthyridine” (CHULABHORN FOUNDATION, priority 2017, dated 2021).
At least one compound was matched to its structure with a doubt left.

System: BxPC-3 pancreatic cancer cells
Conditions: read-out: in vitro EC50; cited from earlier work

In the case of `Cc1cc(/C=C/C#N)cc(C)c1Nc1ccnc(Nc2ccc(C#N)cc2)n1` [TMC278, rilpivirine, reference compound], the EC50 is listed as 24.4 µM.
